# Laboratory results from the supplement of paper PMC12819154, “High-throughput peptide-centric local stability assay extends protein–ligand identification to membrane proteins, tissues and bacteria” (Nature Structural & Molecular Biology, 2025).
# Amino acid sequences for entries named in this document (tags omitted). A change or cut given only in a name is not applied to a line headed by its entry.
# UniProt O15151: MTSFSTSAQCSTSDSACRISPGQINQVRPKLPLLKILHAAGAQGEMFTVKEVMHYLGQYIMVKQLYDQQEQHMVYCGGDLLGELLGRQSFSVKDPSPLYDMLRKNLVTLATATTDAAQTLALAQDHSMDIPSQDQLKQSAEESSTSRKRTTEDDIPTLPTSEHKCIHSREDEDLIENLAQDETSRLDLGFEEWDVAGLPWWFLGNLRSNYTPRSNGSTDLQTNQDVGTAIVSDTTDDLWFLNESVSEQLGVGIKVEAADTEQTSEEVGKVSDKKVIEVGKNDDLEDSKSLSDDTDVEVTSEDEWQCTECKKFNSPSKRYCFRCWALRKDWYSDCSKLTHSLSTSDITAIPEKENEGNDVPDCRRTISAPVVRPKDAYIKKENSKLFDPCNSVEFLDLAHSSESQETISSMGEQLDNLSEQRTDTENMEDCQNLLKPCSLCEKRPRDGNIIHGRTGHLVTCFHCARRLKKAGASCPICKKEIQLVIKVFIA
# UniProt O15056: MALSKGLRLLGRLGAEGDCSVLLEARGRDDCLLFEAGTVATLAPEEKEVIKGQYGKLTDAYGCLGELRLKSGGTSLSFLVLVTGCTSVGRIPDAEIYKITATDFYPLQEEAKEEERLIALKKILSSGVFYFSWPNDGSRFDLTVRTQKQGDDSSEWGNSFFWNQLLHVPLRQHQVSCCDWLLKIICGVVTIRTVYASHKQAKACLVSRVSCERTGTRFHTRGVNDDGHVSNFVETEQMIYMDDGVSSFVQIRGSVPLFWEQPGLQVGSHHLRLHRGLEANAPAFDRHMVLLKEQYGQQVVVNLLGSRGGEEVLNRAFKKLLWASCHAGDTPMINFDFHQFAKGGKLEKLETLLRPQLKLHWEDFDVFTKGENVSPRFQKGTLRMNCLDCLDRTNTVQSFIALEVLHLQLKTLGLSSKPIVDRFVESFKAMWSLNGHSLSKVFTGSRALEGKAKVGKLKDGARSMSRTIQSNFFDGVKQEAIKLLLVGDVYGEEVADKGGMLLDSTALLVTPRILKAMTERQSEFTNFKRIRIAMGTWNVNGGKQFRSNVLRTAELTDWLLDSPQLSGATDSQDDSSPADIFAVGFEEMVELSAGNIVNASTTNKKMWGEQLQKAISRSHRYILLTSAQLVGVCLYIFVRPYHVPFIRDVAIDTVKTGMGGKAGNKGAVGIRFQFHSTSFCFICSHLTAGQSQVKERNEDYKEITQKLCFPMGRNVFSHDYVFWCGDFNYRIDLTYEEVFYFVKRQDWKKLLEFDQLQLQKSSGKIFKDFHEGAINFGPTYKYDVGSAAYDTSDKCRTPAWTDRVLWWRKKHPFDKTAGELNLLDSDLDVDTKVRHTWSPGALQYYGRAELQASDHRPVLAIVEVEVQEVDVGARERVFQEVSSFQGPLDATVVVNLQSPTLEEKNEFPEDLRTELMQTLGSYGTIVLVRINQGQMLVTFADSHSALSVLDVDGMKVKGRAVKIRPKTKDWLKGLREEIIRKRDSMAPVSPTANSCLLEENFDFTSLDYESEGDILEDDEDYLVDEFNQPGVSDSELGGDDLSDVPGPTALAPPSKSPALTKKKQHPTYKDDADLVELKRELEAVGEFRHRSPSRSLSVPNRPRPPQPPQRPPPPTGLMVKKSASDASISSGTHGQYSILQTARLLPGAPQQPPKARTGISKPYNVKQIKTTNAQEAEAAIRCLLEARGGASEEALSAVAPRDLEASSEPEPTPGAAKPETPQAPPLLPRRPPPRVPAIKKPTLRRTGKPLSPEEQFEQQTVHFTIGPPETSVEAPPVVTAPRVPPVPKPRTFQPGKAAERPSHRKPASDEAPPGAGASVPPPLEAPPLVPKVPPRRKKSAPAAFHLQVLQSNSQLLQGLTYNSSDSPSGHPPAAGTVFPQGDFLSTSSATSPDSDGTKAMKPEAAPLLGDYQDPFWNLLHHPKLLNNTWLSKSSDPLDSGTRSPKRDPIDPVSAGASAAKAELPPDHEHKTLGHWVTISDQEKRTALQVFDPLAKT
# UniProt O15037: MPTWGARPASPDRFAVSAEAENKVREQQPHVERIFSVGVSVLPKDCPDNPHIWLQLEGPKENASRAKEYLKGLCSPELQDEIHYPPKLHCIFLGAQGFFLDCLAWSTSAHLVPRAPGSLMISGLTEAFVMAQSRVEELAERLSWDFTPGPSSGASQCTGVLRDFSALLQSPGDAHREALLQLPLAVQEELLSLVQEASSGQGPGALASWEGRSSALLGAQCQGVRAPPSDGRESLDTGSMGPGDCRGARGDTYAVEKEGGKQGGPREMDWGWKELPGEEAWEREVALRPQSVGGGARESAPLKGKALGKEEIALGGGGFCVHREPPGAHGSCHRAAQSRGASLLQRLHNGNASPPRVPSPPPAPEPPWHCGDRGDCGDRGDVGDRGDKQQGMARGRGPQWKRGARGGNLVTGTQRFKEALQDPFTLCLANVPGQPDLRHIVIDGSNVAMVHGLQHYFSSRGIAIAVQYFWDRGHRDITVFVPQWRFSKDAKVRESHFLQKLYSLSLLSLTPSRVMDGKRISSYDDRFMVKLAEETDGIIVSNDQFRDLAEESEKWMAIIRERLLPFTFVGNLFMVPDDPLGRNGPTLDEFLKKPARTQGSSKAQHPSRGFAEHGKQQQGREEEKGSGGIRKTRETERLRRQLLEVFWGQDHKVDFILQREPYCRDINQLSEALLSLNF
# UniProt O00264: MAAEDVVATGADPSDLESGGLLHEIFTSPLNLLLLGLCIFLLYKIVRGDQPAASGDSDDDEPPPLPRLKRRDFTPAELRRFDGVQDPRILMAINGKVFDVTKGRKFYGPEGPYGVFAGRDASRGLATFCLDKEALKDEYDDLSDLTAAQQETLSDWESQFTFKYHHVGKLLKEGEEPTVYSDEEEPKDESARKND
# UniProt O00231, whole entry: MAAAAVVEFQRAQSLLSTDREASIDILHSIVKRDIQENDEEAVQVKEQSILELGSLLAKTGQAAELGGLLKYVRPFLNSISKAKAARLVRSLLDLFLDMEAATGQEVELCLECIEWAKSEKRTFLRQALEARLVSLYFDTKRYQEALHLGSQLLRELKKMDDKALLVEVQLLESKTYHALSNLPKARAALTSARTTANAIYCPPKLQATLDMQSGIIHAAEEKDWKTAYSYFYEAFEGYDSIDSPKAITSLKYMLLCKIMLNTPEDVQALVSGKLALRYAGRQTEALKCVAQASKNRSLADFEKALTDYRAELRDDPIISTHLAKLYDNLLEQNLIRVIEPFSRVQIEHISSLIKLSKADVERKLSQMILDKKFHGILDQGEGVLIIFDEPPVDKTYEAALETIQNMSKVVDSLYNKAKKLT
# UniProt O00418: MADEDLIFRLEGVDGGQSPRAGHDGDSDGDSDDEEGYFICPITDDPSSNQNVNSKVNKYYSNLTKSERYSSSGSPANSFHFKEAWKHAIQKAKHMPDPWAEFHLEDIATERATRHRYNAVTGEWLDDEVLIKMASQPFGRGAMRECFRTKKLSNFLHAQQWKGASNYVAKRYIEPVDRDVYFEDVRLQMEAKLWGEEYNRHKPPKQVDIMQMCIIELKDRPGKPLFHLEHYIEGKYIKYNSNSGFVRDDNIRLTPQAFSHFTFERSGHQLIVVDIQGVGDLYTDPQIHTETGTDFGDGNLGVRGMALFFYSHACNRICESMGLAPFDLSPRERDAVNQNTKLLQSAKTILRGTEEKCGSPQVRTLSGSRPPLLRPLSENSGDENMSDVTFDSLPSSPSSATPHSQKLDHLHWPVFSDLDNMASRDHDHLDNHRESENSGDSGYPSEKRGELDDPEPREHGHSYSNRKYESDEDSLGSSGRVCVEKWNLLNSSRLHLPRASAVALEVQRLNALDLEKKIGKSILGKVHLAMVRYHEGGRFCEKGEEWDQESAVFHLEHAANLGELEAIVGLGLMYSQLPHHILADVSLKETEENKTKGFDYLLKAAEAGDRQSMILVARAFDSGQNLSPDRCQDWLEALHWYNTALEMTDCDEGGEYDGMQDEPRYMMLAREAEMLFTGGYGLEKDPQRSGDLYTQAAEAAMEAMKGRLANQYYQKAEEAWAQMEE
# UniProt O00151: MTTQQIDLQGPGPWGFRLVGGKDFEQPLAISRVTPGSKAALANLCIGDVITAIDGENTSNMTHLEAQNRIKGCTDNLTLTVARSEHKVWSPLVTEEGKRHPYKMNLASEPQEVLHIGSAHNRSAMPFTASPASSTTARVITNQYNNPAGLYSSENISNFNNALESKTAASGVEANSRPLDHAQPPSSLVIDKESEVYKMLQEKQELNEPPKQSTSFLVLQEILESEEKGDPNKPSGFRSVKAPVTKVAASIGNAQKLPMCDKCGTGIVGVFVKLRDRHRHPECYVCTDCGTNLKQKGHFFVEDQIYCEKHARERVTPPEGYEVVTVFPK
# The list shows a part of the results. Most entries show no effect beyond the scatter of the controls.
# Compound: CN[C@@H]1C[C@H]2O[C@@](C)([C@@H]1OC)n1c3ccccc3c3c4c(c5c6ccccc6n2c5c31)C(=O)NC4 [staurosporine]
# Experiment: log2 fold change of tryptic peptide abundance, ligand vs vehicle (limited proteolysis) (log2 ratio); higher = more trypsin-susceptible (destabilized)
# Conditions: ligand concentration: 20 uM; sample: K562 cleared lysate; digestion: 4 min, 22 C (HT-PELSA RT4min, Orbitrap Astral)
row,Target,log2 fold change
1,"MDM4 (peptide sequence: ILHAAGAQGEMFTVK, peptide start residue: 36) (UniProt O15151)",0.262
2,"SYNJ2 (peptide sequence: QHPTYKDDADLVELKR, peptide start residue: 1064) (UniProt O15056)",0.743
3,"UniProt O15037 (peptide sequence: RQLLEVFWGQDHK, peptide start residue: 640)",-0.762
4,"PGRMC1 (peptide sequence: DFTPAELR, peptide start residue: 72) (UniProt O00264)",0.0681
5,"UniProt O15063 (peptide sequence: AGAMQPQQPSLPVPPPPR, peptide start residue: 684)",0.259
6,"PSMD11 (peptide sequence: IMLNTPEDVQALVSGK, peptide start residue: 259) (UniProt O00231)",0.181
7,"EEF2K (peptide sequence: YYSNLTK, peptide start residue: 59) (UniProt O00418)",-0.112
8,"PDLIM1 (peptide sequence: TAASGVEANSRPLDHAQPPSSLVIDK, peptide start residue: 167) (UniProt O00151)",-0.286

# Nothing new here: entries from further up.
row,Target,log2 fold change
5,"UniProt O15063 (peptide sequence: AGAMQPQQPSLPVPPPPR, peptide start residue: 684)",0.259
6,"PSMD11 (peptide sequence: IMLNTPEDVQALVSGK, peptide start residue: 259) (UniProt O00231)",0.181
